For the assay, the target named is T1, rice PDI-like protein 1-1 (PDIL1-1) (rice) (UniProt Q53LQ0).
T1 sequence: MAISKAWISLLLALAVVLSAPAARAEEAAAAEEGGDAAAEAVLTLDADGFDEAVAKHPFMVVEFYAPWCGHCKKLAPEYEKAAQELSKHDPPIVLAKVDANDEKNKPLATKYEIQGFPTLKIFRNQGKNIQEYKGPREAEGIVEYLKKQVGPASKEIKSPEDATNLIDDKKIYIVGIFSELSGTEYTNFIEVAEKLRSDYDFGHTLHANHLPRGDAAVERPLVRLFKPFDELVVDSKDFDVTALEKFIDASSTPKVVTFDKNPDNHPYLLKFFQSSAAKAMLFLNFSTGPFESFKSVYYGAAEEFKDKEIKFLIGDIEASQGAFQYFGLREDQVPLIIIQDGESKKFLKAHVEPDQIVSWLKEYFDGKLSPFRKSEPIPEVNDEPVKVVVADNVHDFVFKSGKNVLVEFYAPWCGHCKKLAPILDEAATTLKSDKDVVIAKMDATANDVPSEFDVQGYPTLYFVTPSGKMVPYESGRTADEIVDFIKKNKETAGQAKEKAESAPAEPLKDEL
Put plainly: two-hybrid; pGBKT7-PDIL1-1 (BD) co-introduced with rice CP43 homologs in pGADT7 (AD) into AH109 yeast; plated on Leu-/Trp- and Leu-/Trp-/His- (5 mM 3-AT), incubated for 4 days.

Results are given in words; binding and its absence hold for the method and conditions named.

For “rice papain-like cysteine protease XBCP3”, the binding entry is “no binding”.

With oryzain α (rice), the binding result is reported as “no binding”.

As for oryzain β (rice), the binding result is on record as “no binding”.

The values are drawn from article PMC3435311.
